T1: human galectin-10-His (recombinant human galectin-10 with TEV-cleavable N-terminal His-tag) (human)
T1 sequence: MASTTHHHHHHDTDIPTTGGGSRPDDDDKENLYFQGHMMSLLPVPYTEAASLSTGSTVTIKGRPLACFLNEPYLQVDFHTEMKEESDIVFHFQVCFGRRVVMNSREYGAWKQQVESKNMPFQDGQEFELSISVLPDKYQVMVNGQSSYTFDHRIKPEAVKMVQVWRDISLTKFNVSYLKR

T2: human galectin-10-His (human)
T2 sequence: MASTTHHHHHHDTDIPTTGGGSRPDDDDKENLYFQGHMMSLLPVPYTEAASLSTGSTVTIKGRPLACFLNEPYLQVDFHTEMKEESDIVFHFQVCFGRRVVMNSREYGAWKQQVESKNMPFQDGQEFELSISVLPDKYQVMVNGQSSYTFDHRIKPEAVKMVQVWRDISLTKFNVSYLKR

T3: TEV-cleaved wild-type recombinant human galectin-10 (soluble, in Fab complexes, or as recombinant galectin-10 crystals / CLCs) (human) (UniProt Q05315)
T3 sequence: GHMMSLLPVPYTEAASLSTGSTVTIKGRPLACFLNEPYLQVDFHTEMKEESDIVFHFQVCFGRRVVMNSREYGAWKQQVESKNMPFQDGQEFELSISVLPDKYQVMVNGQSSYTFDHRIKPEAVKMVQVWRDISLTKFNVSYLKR

B1: 1A12 scFv-human Fc (Fc fusion)
scFv: QVQLVESGGGLVQPGGSLRVSCAASGFTFSSYYMSWVRQAPGKGLEWVSAINSGGGSTYYADSVKGRFTISRDNAKNTLYLQMNSLKSEDTAVYYCVQNGGIWSFGSWGQGTQVTVSSGGGGSGGGGSGGGGSSSALTQPSAISVSLGQTARITCQGGNFGYYYVSWYQQKPGQAPVQVIYGDSNRPSGIPERFSGSSSGGTATLTISGAQAEDEADYYCLSYESSDYPVFGGGTHLTVL
notes: about 100 kDa on SDS-PAGE; also called 1A12 ScFv-hFc; not shown: CH2-CH3 constant domains of human IgG1 (vector pUPEX50)
B2: VHH clone 13C07 (VHH)
VHH: QLQVVESGGGLVQAGGSLRLSCAASSSAYSMAWFRQAPGKEREFVAAITWSGGSHHDDSVKGRFTISRDGAKNTVYLQMNSLKPEDTAVYYCAVGTLYSFSYRDYDYWGQGTQVTVSS
notes: Purified VHH-Myc-His from E. coli; not shown: Myc and His tags of the phagemid vector
B3: VHH clone 13G12 (VHH)
VHH: QLQVVESGGGLVQAGGSLRLSCAASSSAYSMGWFRQAPGKEREFVAVISWSGGSHYDDSVKGRFTISRDGAKNTVYLQMNSLKPEDTAVYYCAVGTLYSFRYRDYDYWGQGTQVTVSS
notes: as for B2
B4: VHH clone 13H07 (VHH)
VHH: QLQLVESGGGLVQAGGSLRLSCVASGRTFSTYAMDWFRQAPGKEREFVAAISWHSAIYYADAVKGRFTISRDNGKNTMYLQMNNLKPEDTAVYFCAAALRYRFNPSAMEYWGKGTLVTVSS
notes: as for B2
B5: VHH clone 13C03 (VHH)
VHH: QVQLVESGGGLVQPGGSLRLSCAASGSIFSISRMGWYRQAPGKQRELVAIIFSDASTDYADSVKGRFTISRSNAKNTVYLQMNSLKPEDTAVYYCKSVLRAAGYGYFNQYWGQGTQVTVSS
notes: as for B2
B6: VHH clone 13E09 (VHH)
VHH: QVQVQESGGGLVQAGNSLRLSCAASGRTFSSYHMMWFRQAPGKEREFVAAIAWRGGTYCANSVKGRCTISRDNAKDTVYLQMNSLKPEDTAVYFCAASLRYVFDPSAMDYWGKGTLVTVSS
notes: as for B2
B7: VHH clone 13A05 (VHH)
VHH: QVQLVESGGGLVQAGGSLRLSCAASSSSYSMSWFRQAPGKEREFVAIISWSGGTYYDDSVKGRFTVSRDNAKNTVYLQMNSLKPEDTAVYYCAAGTQFSFSYREYDYWGQGTQVTVSS
notes: as for B2
B8: VHH clone 13C06 (VHH)
VHH: QLQLVESGGGLVQAGGSLRLSCAASSSSYSMGWFRQAPGKEREFVATISWSGGFYYDDSVKGRFTVSRDNAKNTVYLQMNSLKPEDTAVYYCAAGTRFSFSYREYHYWGQGTQVTVSS
notes: as for B2
B9: 2C07 mouse IgG1 (antibody, V domains shown)
VH: ELQLVESGGGLVQPGGSLRLSCAASGFTFSSYAMSWVRQAPGKGLEWVSNINSGGGSTGYADSVKGRFTISRDNAKNTLYLQMNSLKPEDMAVYYCAKYLRTYYPNAAFGMDYWGKGTLVTVSS
VL: QAVLTQPSAVSVSLGQTARITCQGGNFGRYYASWYQQKPGQAPVLVIYRDSERPSGIPERFSGSSSGDTATLTISGAQAEDEADYYCQSGRSSDNAVFGGGTHLTGL
notes: VH on mouse IgG1 heavy chain constant domains (CH1-CH2-CH3), VL on mouse lambda light chain constant domain; also called 2C07 mIgG1
B10: 6E10 mouse IgG1 (antibody, V domains shown)
VH: QLQLVESGGGLVQPGGSLRLSCAASGFTFSSYWMYWVRQAPGKGLEWVSAINTGGGSTYYADSVKGRFTISRDNAKNTLYLQMNSLKPEDTALYYCARAGSGVAGTGYDYWGQGTQVTVSS
VL: QPVLNQPSAVSVSLGQTARITCQGGNFGYYYVSWYQQKPGQAPVLVIYRDSGRPSGIPERFSGSSSGDTATLTISGAQAEDEADYYCQSGSSSDNAVFGGGTHLTVL
notes: also called 6E010; 6E10 mIgG1
B11: 6B06 mouse IgG1 (antibody, V domains shown)
VH: QVQRQESGPGLVKPSQTLSLTCTVSGGSITTNYYSWSWIRQPPGKGLEWIGYIAYSGSTSYSPSLKSRTSISRDTSNNQFSLQLSSVTPEDTAVYYCARSRSSPTTFGMDYWGKGTLVTVSS
VL: SSALTQPSAVSVSLGQTARITCQGGNFGRYYVSWYTQKPGQAPVLVIYQDSERPTGIPERFSGSSSGDTATLTISGAQAEDEADYYCQSGTSSDNIVFGGGTHLTVL
notes: also called 6B06 mIgG1
B12: 6F06 mouse IgG1 (antibody, V domains shown)
VH: QVQLVESGGGLVQPGGSLRLSCAASEFTFSRYSMSWVRQAPGKGLEWVSTINSGGGSTSYVDSVKGRFTISRDNAKNTLYLQMNSLKPEDTAVYYCTKSQGGISFSTQYGMDYWGKGTLVTVSS
VL: NFMLTQPSAVSVSLGQTARITCQGGNFGRYYANWYQQKPGQAPVLVIYKDSERPSGIPERFSGSSSGDTATLTISGAQAEDESDYYCQSGSVSDNAVFGGGTHLAVL
notes: also called 6F06 mIgG1
B13: 2F09 mouse IgG1 (antibody, V domains shown)
VH: QVQVQESGPGLVKPSQTLSLTCTVSGGSITTNYFYWSWIRQSPGKGLEWIGAIAYSGRTYYSPSLKSRTSISRDTSNNQFTLQLSSVTPEDTAVYYCARGPKGLASYYDYWGQGTQVTVSS
VL: SSALTQPSAVSVSLGQTARITCQGGNFGYYYVSWYQQKPGQAPVLVIYRDSGRPSGIPERFSGSSSGDTATLTISGAQAEDEADYYCQSGSSSDNTVFGGGTHLTVL
notes: VH on mouse IgG1 heavy chain constant domains (CH1-CH2-CH3), VL on mouse lambda light chain constant domain; also called 2F09 mIgG1
B14: 6A05 mouse IgG1 (antibody, V domains shown)
VH: EVQLVESGGGLVQPGGSLRLSCAASGFTFSSYAMSWVRQAPGKGLEWVSAINSGGGWTSYVDSVKGRFTISRDNAKNTLYLQMDSLKPEDTAVYYCTKYSGPELNTQYGMDYWGKGTLVTVSS
VL: NFMLTQPSAVSVSLGQTARITCQGGNFGSYYASWYQQKPGQAPVLVIYRDSGRPSGIPERFSGSSSGDTATLTISGAQAEDEADYYCQSGSSSDNTVFGGGTHLTVL
notes: also called 6A05 mIgG1
B15: 6A08 mouse IgG1 (antibody, V domains shown)
VH: QVQLVESGGGLVQPGGSLRLSCAASGFTFSSYAMSWVRQAPGKGPEWVSAINRGGGSTYYADSVKGRFTISRDNAKNTLYLQMNSLKPEDAAVYYCATPGDRLWYYRYDYWGQGAQVTVSS
VL: QTVVTQEPSLSVSPGGTVTLTCGLSSGSVTSSNYPGWYQQTPGQAPRLLIYNTNSRYSGVPNRFSGSISGNKAALIISGAQPEDEADYHCALNRVRGTYRVFGGGTHLTVL
notes: also called 6A08 mIgG1
B16: 4E08 Fab (Fab, V domains shown)
VH: QVQRQESGPGLVKPSQTLSLTCTVSGGSITTSYYAWSWIRQPPGKGLEWMGVIASDGSTYYSPSLKSRTSISRDTSKNQFSLQLSSVTPEDTAVYYCALYIRGSSWSGWSAYDYWGQGTQVTVSS
VL: QPVLNQPSAVSVSLGQTARITCQGGNFGYYYGSWYQQKPGQAPVLVIYKDSERPSGIPERFSGSSSGGTATLTISRAQAEDEADYYCQSADSSDNPVFGGGTHLTVL
notes: VH on human CH1 constant domain (with part of the hinge region), VL on human lambda constant domain; also called 4E8; Fab 4E8
B17: 6F05 Fab (Fab, V domains shown)
VH: QLQLVESGGGLVQPGGSLRLSCAASGFTFSSYAMSWVRQAPGKGLEWVSAINSGGGSTSYADSVKGRFTISRDNAKNTLYLQMNSLKPEDTAVYYCATPGDRLWYYRYDYWGQGTQVTVSS
VL: QAGLTQPPSVSGTLGKAVTISCAGTSSDIGYGNYVSWYQQLPGTAPKLLIYKVSRRASGVPDRFSGSKSGNTASLSISGLQSEDEADYYCASYRYRNNVVFGGGTHLTVL
notes: VH on human CH1 constant domain (with part of the hinge region), VL on human lambda constant domain; also called 6F5; Fab 6F5
B18: 1D11 Fab (Fab, V domains shown)
VH: QVQLVESGGGLVQPGGSLRLSCAASGFTFDDYAMSWVRQAPGKGLEWVSGISWNGGSTYYAESMKGRFTISRDNAKNTLYLQMNSLKSEDTAVYYCAKDRNLGYRLGYPYDYWGQGTQVTVSS
VL: QSVLTQPPSVSGSPGETVTISCAGTSSDVGYGNYVSWYQQLPGMAPRLLIYEVNKRASGITDRFSGSKSGNTASLTISGLQSEDEGDYYCASYRSSNNAVFGGGTHLTVL

These are yes or no findings as the source states them, for the method shown. Some binding calls cover weakened binding; strength is not graded here. For part of these data: Where a sequence is shown, tags or fusion partners need not be part of it.

One assay addresses T1, human galectin-10-His (recombinant human galectin-10 with TEV-cleavable N-terminal His-tag) (human). The experiment in a line: ELISA, scFv-hFc on coated galectin-10-His (0.2 ug/mL). (ELISA stands for enzyme-linked immunosorbent assay.)
B1: the binding entry is “binds”.

The target of the next assay is T2, human galectin-10-His (human). As to the kind of experiment: ELISA, Gal10-His coated at 1 ug/mL, VHH titrated, anti-Myc-HRP.
Turning to B2, the binding entry is “binds”.
On the same count and under the same terms, to B3 belongs “binds”.
Take B4: the binding entry is “binds”.
As for B5, the binding entry is on record as “binds”.
Consider B6, for which the binding result is recorded as “binds”.
Take B7: the binding entry is given as “binds”.
On the same count and under the same terms, to B8 belongs “binds”.

The target of another assay is T1, human galectin-10-His (recombinant human galectin-10 with TEV-cleavable N-terminal His-tag) (human). As to the kind of experiment: BLI tandem on galectin-10-His, isotype control as saturating antibody.
On to B9, for which the binding entry was “binds”.
In the case of B10, the binding result is “binds”.
Turning to B11, the binding result is on record as “binds”.
On to B12, for which the binding entry was “binds”.
Same read-out and setting: to B13 belongs “binds”; to B14, “binds”.
With B15, the binding entry is recorded as “binds”.

For a further assay, the target named is T3, TEV-cleaved wild-type recombinant human galectin-10 (soluble, in Fab complexes, or as recombinant galectin-10 crystals / CLCs) (human). As to the kind of experiment: complex isolated by size-exclusion chromatography and co-crystallized.
On to B16, for which the binding entry is on record as “binds”.
As for B17, the binding result is “binds”.
Consider B18, for which the binding entry is “binds”.
